Where “and” joins values, the source holds several entries; their conditions need not be identical. Identical values can stand only once. This is one part of the list. Single wells; the ratio to wells without odorant was worked out here, and repeats agree poorly.
The compounds below were run on OR6M1 clone 1182 (assay: odorant receptor activation (CRE luciferase / Renilla) (fold of no-odor wells); higher = more activation). Settings: 100 µM.
For `CCCCCC(C)=O` [2-heptanone], the odorant receptor activation was 1.09.
With `CCCCCCC=O` [heptaldehyde] the odorant receptor activation was 0.331 and 0.884.
Compound `COc1cc(C)ccc1O` [2-methoxy-4-methylphenol] has an odorant receptor activation of 0.774.
`O=C1CCCCCCCCCCCCCCO1` [pentadecalactone] gave an odorant receptor activation of 0.652.
`CC(C)(C)c1ccc(CCC=O)cc1` [bourgeonal] showed an odorant receptor activation of 0.741.
`CCCCCCOC(=O)CCC` [hexyl butyrate] showed an odorant receptor activation of 0.931.
`CC12C=CCC1C1CCC3=CC(=O)CCC3(C)C1CC2` (stereo unspecified) [androstadienone] showed an odorant receptor activation of 1.06.
Work on `CC12CCC(CC1)C(C)(C)O2` [cineole] yielded an odorant receptor activation of 0.794.
With `CC1=NC(C)SC1C` (stereo unspecified) the odorant receptor activation was 0.984.
`CCCC(=O)O` [butyric acid] showed an odorant receptor activation of 0.783.
With `COc1ccccc1O` [guaiacol] the odorant receptor activation was 0.865.
`O=C1CCCCC1` [Cyclohexanone] gave an odorant receptor activation of 0.86.
`CCCCCCCOC(C)=O` [heptyl acetate] was tested, and the odorant receptor activation was 1.05.
For `CC(=O)c1ccccc1` [acetophenone], the odorant receptor activation was 1.19.
For `CCCCCOC(C)=O` [n-amyl acetate], the odorant receptor activation was 0.575.
`CCCCCCCCC=O` [nonyl aldehyde] gave an odorant receptor activation of 1.26.
Compound `CC1COCc2cc3c(cc21)C(C)(C)C(C)C3(C)C` (stereo unspecified) [galaxolide] has an odorant receptor activation of 2.99.
With `CC(C)CC(=O)O` [isovaleric acid] the odorant receptor activation was 1.23.
For `CC(C)C=O` [isobutyraldehyde], the odorant receptor activation was 1.34.
Compound `CCCCCCCC=O` [octyl aldehyde] has an odorant receptor activation of 1.13.
`CC1=CCC(C(C)(C)O)CC1` (stereo unspecified) [terpineol] was tested, and the odorant receptor activation was 1.05.
Compound `CC12C=CCC1C1CCC3CC(=O)CCC3(C)C1CC2` (stereo unspecified) [androstenone] has an odorant receptor activation of 3.64.
`CC=Cc1ccc(O)c(OC)c1` [isoeugenol] gave an odorant receptor activation of 1.71.
Work on `CC/C=C\CCO` [cis-3-hexen-1-ol] yielded an odorant receptor activation of 0.904.
For `CCCCCCCCCCC=O` [undecanal], the odorant receptor activation was 0.875.
In the case of `COC(=O)c1ccccc1` [methyl benzoate], the odorant receptor activation is reported as 1.05.
`C=C(C)C1CC=CCC1` (stereo unspecified) [r-limonene] was tested, and the odorant receptor activation was 0.778 and 0.357.

What follows are compounds tested on OR6N1 I194T/F245L/Q261R/R293H clone 1038 in the same assay as above. Settings: 100 µM.
Compound `CCCCCC(C)=O` [2-heptanone] has an odorant receptor activation of 0.383.
`CCCCCCC=O` [heptaldehyde] was tested, and the odorant receptor activation was 1.32 and 0.605.
`COc1cc(C)ccc1O` [2-methoxy-4-methylphenol] was tested, and the odorant receptor activation was 1.51.
`O=C1CCCCCCCCCCCCCCO1` [pentadecalactone] was tested, and the odorant receptor activation was 0.717.
`CC(C)(C)c1ccc(CCC=O)cc1` [bourgeonal] gave an odorant receptor activation of 0.78.
Compound `CCCCCCOC(=O)CCC` [hexyl butyrate] has an odorant receptor activation of 0.486.
Compound `CC12C=CCC1C1CCC3=CC(=O)CCC3(C)C1CC2` (stereo unspecified) [androstadienone] has an odorant receptor activation of 0.891.
Work on `CC12CCC(CC1)C(C)(C)O2` [cineole] yielded an odorant receptor activation of 0.816.
`CC1=NC(C)SC1C` (stereo unspecified) gave an odorant receptor activation of 1.01.
`CCCC(=O)O` [butyric acid] gave an odorant receptor activation of 1.13.
Work on `COc1ccccc1O` [guaiacol] yielded an odorant receptor activation of 0.706.
Work on `O=C1CCCCC1` [Cyclohexanone] yielded an odorant receptor activation of 0.832.
For `CCCCCCCOC(C)=O` [heptyl acetate], the odorant receptor activation was 0.58.
`CC(=O)c1ccccc1` [acetophenone] gave an odorant receptor activation of 0.756.
Work on `CCCCCOC(C)=O` [n-amyl acetate] yielded an odorant receptor activation of 1.24.
For `CCCCCCCCC=O` [nonyl aldehyde], the odorant receptor activation was 0.983.
With `CC1COCc2cc3c(cc21)C(C)(C)C(C)C3(C)C` (stereo unspecified) [galaxolide] the odorant receptor activation was 2.06.
For `CC(C)CC(=O)O` [isovaleric acid], the odorant receptor activation was 1.14.
Compound `CC(C)C=O` [isobutyraldehyde] has an odorant receptor activation of 0.563.
For `CCCCCCCC=O` [octyl aldehyde], the odorant receptor activation was 1.08.
For `CC1=CCC(C(C)(C)O)CC1` (stereo unspecified) [terpineol], the odorant receptor activation was 0.871.
In the case of `CC12C=CCC1C1CCC3CC(=O)CCC3(C)C1CC2` (stereo unspecified) [androstenone], the odorant receptor activation is reported as 1.77.
`CC=Cc1ccc(O)c(OC)c1` [isoeugenol] was tested, and the odorant receptor activation was 0.604.
`CC/C=C\CCO` [cis-3-hexen-1-ol] was tested, and the odorant receptor activation was 0.723.
Compound `CCCCCCCCCCC=O` [undecanal] has an odorant receptor activation of 1.
Work on `COC(=O)c1ccccc1` [methyl benzoate] yielded an odorant receptor activation of 0.94.
With `C=C(C)C1CC=CCC1` (stereo unspecified) [r-limonene] the odorant receptor activation was 1.12 and 1.25.

The compounds below were run on OR6N2 clone 1027 in the same assay as above. Settings: 100 µM.
For `CCCCCC(C)=O` [2-heptanone], the odorant receptor activation was 0.61.
`CCCCCCC=O` [heptaldehyde] was tested, and the odorant receptor activation was 0.605 and 1.27.
For `COc1cc(C)ccc1O` [2-methoxy-4-methylphenol], the odorant receptor activation was 1.78.
In the case of `O=C1CCCCCCCCCCCCCCO1` [pentadecalactone], the odorant receptor activation is reported as 0.826.
In the case of `CC(C)(C)c1ccc(CCC=O)cc1` [bourgeonal], the odorant receptor activation is reported as 0.595.
With `CCCCCCOC(=O)CCC` [hexyl butyrate] the odorant receptor activation was 1.04.
`CC12C=CCC1C1CCC3=CC(=O)CCC3(C)C1CC2` (stereo unspecified) [androstadienone] gave an odorant receptor activation of 1.91.
In the case of `CC12CCC(CC1)C(C)(C)O2` [cineole], the odorant receptor activation is reported as 0.683.
In the case of `CC1=NC(C)SC1C` (stereo unspecified), the odorant receptor activation is reported as 0.966.
`CCCC(=O)O` [butyric acid] gave an odorant receptor activation of 0.94.
`COc1ccccc1O` [guaiacol] showed an odorant receptor activation of 2.02.
`O=C1CCCCC1` [Cyclohexanone] showed an odorant receptor activation of 0.867.
`CCCCCCCOC(C)=O` [heptyl acetate] showed an odorant receptor activation of 1.64.
`CC(=O)c1ccccc1` [acetophenone] showed an odorant receptor activation of 0.589.
`CCCCCOC(C)=O` [n-amyl acetate] showed an odorant receptor activation of 0.865.
For `CCCCCCCCC=O` [nonyl aldehyde], the odorant receptor activation was 1.28.
Work on `CC1COCc2cc3c(cc21)C(C)(C)C(C)C3(C)C` (stereo unspecified) [galaxolide] yielded an odorant receptor activation of 3.99.
`CC(C)CC(=O)O` [isovaleric acid] was tested, and the odorant receptor activation was 1.3.
`CC(C)C=O` [isobutyraldehyde] showed an odorant receptor activation of 1.15.
Compound `CCCCCCCC=O` [octyl aldehyde] has an odorant receptor activation of 1.2.
`CC1=CCC(C(C)(C)O)CC1` (stereo unspecified) [terpineol] gave an odorant receptor activation of 0.997.
`CC12C=CCC1C1CCC3CC(=O)CCC3(C)C1CC2` (stereo unspecified) [androstenone] gave an odorant receptor activation of 2.01.
For `CC=Cc1ccc(O)c(OC)c1` [isoeugenol], the odorant receptor activation was 1.06.
Compound `CC/C=C\CCO` [cis-3-hexen-1-ol] has an odorant receptor activation of 0.756.
In the case of `CCCCCCCCCCC=O` [undecanal], the odorant receptor activation is reported as 1.11.
In the case of `COC(=O)c1ccccc1` [methyl benzoate], the odorant receptor activation is reported as 1.08.
In the case of `C=C(C)C1CC=CCC1` (stereo unspecified) [r-limonene], the odorant receptor activation is reported as 1.09 and 1.13.

Reference: the odorant receptor screen of Mainland et al. (2015)
